{"sequences": {"note": "By UniProt entry, the sequences of proteins in these tests, tags left out.", "UniProt Q9UBS0": "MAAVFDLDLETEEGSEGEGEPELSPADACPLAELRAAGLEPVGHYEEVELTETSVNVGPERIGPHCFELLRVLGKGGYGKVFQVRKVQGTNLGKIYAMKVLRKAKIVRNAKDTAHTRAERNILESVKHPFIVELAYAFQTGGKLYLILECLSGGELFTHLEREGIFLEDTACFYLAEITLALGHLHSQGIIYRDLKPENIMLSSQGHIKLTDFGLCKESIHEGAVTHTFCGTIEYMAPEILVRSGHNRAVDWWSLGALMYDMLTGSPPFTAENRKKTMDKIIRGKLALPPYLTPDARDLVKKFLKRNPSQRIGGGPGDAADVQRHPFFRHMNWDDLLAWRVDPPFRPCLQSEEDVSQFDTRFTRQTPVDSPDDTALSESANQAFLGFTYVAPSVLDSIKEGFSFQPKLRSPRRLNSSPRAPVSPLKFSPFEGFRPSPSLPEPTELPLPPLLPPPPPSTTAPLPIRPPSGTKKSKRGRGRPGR", "UniProt P09651": "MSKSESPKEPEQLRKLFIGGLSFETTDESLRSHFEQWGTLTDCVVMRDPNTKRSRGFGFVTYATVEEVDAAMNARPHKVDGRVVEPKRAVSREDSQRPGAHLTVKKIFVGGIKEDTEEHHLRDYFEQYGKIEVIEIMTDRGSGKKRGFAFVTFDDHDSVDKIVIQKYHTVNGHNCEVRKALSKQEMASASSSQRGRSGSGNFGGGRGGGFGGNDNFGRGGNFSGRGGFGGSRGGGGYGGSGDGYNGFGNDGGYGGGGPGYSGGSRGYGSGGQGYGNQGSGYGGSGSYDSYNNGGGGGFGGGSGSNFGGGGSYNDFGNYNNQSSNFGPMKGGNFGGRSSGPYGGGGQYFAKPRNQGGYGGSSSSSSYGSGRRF", "UniProt P62258": "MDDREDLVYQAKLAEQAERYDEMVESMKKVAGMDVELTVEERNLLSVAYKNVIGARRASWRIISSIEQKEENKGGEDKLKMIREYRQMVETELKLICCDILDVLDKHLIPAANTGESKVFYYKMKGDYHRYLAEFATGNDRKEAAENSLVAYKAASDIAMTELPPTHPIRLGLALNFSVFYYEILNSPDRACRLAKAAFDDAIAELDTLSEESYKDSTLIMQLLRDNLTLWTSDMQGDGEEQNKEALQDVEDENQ", "UniProt P63279": "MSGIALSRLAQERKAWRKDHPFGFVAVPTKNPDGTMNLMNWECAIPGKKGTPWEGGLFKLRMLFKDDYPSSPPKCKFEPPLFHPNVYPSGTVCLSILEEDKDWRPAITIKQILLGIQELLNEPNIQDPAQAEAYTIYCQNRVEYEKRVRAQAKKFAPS", "UniProt P31947": "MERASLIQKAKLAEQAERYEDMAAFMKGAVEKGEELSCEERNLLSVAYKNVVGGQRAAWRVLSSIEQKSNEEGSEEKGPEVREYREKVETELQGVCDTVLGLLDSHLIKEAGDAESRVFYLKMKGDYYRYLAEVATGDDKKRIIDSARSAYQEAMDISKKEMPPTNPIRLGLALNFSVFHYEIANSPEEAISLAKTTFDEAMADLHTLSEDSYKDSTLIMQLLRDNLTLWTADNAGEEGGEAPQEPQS"}, "source": "paper PMC4227786", "molecules": {"B1": {"name": "PDCD4 (endogenous) (protein, UniProt Q53EL6 1-469)", "chain": "MDVENEQILNVNPADPDNLSDSLFSGDEENAGTEEIKNEINGNWISASSINEARINAKAKRRLRKNSSRDSGRGDSVSDSGSDALRSGLTVPTSPKGRLLDRRSRSGKGRGLPKKGGAGGKGVWGTPGQVYDVEEVDVKDPNYDDDQENCVYETVVLPLDERAFEKTLTPIIQEYFEHGDTNEVAEMLRDLNLGEMKSGVPVLAVSLALEGKASHREMTSKLLSDLCGTVMSTTDVEKSFDKLLKDLPELALDTPRAPQLVGQFIARAVGDGILCNTYIDSYKGTVDCVQARAALDKATVLLSMSKGGKRKDSVWGSGGGQQSVNHLVKEIDMLLKEYLLSGDISEAEHCLKELEVPHFHHELVYEAIIMVLESTGESTFKMILDLLKSLWKSSTITVDQMKRGYERIYNEIPDINLDVPHSYSVLERFVEECFQAGIISKQLRDLCPSRGRKRFVSEGDGGRLKPESY"}, "B2": {"name": "SUMO activating enzyme 1 (SAE1) (enzyme, UniProt Q9UBE0 1-346)", "chain": "MVEKEEAGGGISEEEAAQYDRQIRLWGLEAQKRLRASRVLLVGLKGLGAEIAKNLILAGVKGLTMLDHEQVTPEDPGAQFLIRTGSVGRNRAEASLERAQNLNPMVDVKVDTEDIEKKPESFFTQFDAVCLTCCSRDVIVKVDQICHKNSIKFFTGDVFGYHGYTFANLGEHEFVEEKTKVAKVSQGVEDGPDTKRAKLDSSETTMVKKKVVFCPVKEALEVDWSSEKAKAALKRTTSDYFLLQVLLKFRTDKGRDPSSDTYEEDSELLLQIRNDVLDSLGISPDLLPEDFVRYCFSEMAPVCAVVGGILAQEIVKALSQRDPPHNNFFFFDGMKGNGIVECLGPK"}, "B3": {"name": "SUMO activating enzyme 2 (SAE2/UBA2) (enzyme, UniProt Q9UBT2 1-640)", "chain": "MALSRGLPRELAEAVAGGRVLVVGAGGIGCELLKNLVLTGFSHIDLIDLDTIDVSNLNRQFLFQKKHVGRSKAQVAKESVLQFYPKANIVAYHDSIMNPDYNVEFFRQFILVMNALDNRAARNHVNRMCLAADVPLIESGTAGYLGQVTTIKKGVTECYECHPKPTQRTFPGCTIRNTPSEPIHCIVWAKYLFNQLFGEEDADQEVSPDRADPEAAWEPTEAEARARASNEDGDIKRISTKEWAKSTGYDPVKLFTKLFKDDIRYLLTMDKLWRKRKPPVPLDWAEVQSQGEETNASDQQNEPQLGLKDQQVLDVKSYARLFSKSIETLRVHLAEKGDGAELIWDKDDPSAMDFVTSAANLRMHIFSMNMKSRFDIKSMAGNIIPAIATTNAVIAGLIVLEGLKILSGKIDQCRTIFLNKQPNPRKKLLVPCALDPPNPNCYVCASKPEVTVRLNVHKVTVLTLQDKIVKEKFAMVAPDVQIEDGKGTILISSEEGETEANNHKKLSEFGIRNGSRLQADDFLQDYTLLINILHSEDLGKDVEFEVVGDAPEKVGPKQAEDAAKSITNGSDDGAQPSTSTAQEQDDVLIVDSDEEDSSNNADVSEEERSRKRKLDEKENLSAKRSRIEQKEELDDVIALD"}, "B4": {"name": "14-3-3θ (endogenous) (protein, UniProt P27348 1-245)", "chain": "MEKTELIQKAKLAEQAERYDDMATCMKAVTEQGAELSNEERNLLSVAYKNVVGGRRSAWRVISSIEQKTDTSDKKLQLIKDYREKVESELRSICTTVLELLDKYLIANATNPESKVFYLKMKGDYFRYLAEVACGDDRKQTIDNSQGAYQEAFDISKKEMQPTHPIRLGLALNFSVFYYEILNNPELACTLAKTAFDEAIAELDTLNEDSYKDSTLIMQLLRDNLTLWTSDSAGEECDAAEGAEN"}}, "note": "These are yes or no findings as the source states them, for the method shown. Binding seen in cells or lysates may run through a third protein. These calls come from enrichment with a bait or labelling near it, and not all partners need be listed."}
{"molecular_target": "TAP-tagged S6K2 (ribosomal S6 kinase 2) (UniProt Q9UBS0)", "assay": "affinity purification with mass spectrometry; Tandem Affinity Purification with TAP-S6K2 as bait from HEK293 cells treated ± FGF-2 for 10 min; rabbit IgG agarose, TEV elution, streptavidin beads; SDS-PAGE, LC/MS/MS"}
{"molecule": "B1", "binding": "binds"}
{"molecular_target": "TAP-tagged hnRNPA1 (UniProt P09651)", "assay": "affinity purification with mass spectrometry; Tandem Affinity Purification with TAP-hnRNPA1 as bait from HEK293 cells in the absence and presence of FGF-2 for 10 min; rabbit IgG agarose, TEV elution, streptavidin beads; SDS-PAGE, LC/MS/MS"}
{"molecule": "14-3-3ϵ (endogenous) (from UniProt P62258 1-255)", "binding": "binds"}
{"molecule": "SUMO conjugating enzyme (UBC9) (from UniProt P63279 1-158)", "binding": "binds"}
{"molecule": "14-3-3σ (endogenous) (from UniProt P31947 1-248)", "binding": "binds"}
{"molecule": "B2", "binding": "binds"}
{"molecule": "B3", "binding": "binds"}
{"molecule": "B4", "binding": "binds"}
